# Assay results as given in patent US20080286349A1, “SYSTEMS, DEVICES, AND METHODS FOR PASSIVE TRANSDERMAL DELIVERY OF ACTIVE AGENTS TO A BIOLOGICAL INTERFACE” (priority 2007, published 2008).
# Structures can show the parent of a compound that is named as a salt.
# Experiment: Membrane potential measurement across skin in H-shaped Franz cell; ion mobility relative to chloride
# Assay type: physicochemical, mouse
# Conditions: for ΔΦ (membrane potential): 1.0% Diclofenac
# From the text: The electric potential difference shown here is between the outside and the inside of the skin. The “+/−” notation is opposite to that shown in Equation 12. […] These values have been used to make calculations.
smiles,measurement,setting,value
"CCC(NC(C)C)C(O)c1ccc(O)c2[nH]c(=O)ccc12 (centres unmarked) [Procaterol HCl, 8-hydroxy-5-[1-hydroxy-2-[(1-methylethyl)amino]butyl]-2(1H)-quinolinone]",Membrane Potential,Procaterol 0.000015 mol cm^−3,0.0064 V
same,Membrane Potential,Procaterol 0.00003 mol cm^−3,0.0054 V
same,Membrane Potential,Procaterol 0.00006 mol cm^−3,0.0025 V
same,"Membrane potential, Measured",[…] Procaterol,−0.003 V
"O=C1O[C@H]([C@@H](O)CO)C(O)=C1O[C@H]1O[C@H](CO)[C@@H](O)[C@H](O)[C@H]1O [AA2G, L-Ascorbic acid 2-Glucoside]",Membrane Potential Δφ,AA2G 0.000059 mol cm^3,0.0772 V
same,Membrane Potential Δφ,AA2G 0.000148 mol cm^3,0.0753 V
same,Membrane Potential Δφ,AA2G 0.000296 mol cm^3,0.0537 V
"O=C([O-])Cc1ccccc1Nc1c(Cl)cccc1Cl.[Na+] [Diclofenac, monosodium 2-(2-(2,6-dichlorophenylamino)phenyl)acetate]","Membrane potential, Measured",0.032 mol dm^−3 sodium Diclofenac,−0.0127 V
same,ΔΦ (membrane potential),KCl conc 0 %,−0.013 V
same,ΔΦ (membrane potential),KCl conc 0.1 %,−0.0075 V
same,ΔΦ (membrane potential),KCl conc 0.5 %,0.002 V
